From PMC9576733, “Cryo-EM structures of the translocational binary toxin complex CDTa-bound CDTb-pore from Clostridioides difficile” (Nature Communications, 2022)
Results are given in words; binding and its absence hold for the method and conditions named. Some binding calls cover weakened binding; strength is not graded here.

Protein sequences, listed by entry. Tags and fused reporters are not part of them. Residues count along the entry.
UniProt O32739, residues 214-876: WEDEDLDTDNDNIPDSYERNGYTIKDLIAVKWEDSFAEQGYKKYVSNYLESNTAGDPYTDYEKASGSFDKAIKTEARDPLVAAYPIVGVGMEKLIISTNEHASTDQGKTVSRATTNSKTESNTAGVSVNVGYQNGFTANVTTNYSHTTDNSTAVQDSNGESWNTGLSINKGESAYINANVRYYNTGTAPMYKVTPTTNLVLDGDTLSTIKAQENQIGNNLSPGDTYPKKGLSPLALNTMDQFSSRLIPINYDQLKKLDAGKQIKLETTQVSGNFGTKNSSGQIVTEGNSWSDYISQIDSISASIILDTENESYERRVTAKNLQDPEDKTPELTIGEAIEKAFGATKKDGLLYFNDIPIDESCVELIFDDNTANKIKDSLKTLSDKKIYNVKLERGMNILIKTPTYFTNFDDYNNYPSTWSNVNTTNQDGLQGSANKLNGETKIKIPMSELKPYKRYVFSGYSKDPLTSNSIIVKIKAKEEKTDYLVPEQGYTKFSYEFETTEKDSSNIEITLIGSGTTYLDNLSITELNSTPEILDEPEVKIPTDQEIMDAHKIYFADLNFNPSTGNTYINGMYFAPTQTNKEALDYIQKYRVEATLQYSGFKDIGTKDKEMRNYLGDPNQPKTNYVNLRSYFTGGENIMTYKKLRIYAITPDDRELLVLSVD

Target: CDTb-pore, wild type (chymotrypsin-activated CDTb oligomer) (Clostridioides difficile) (UniProt O32739)
Experiment: density gradient ultracentrifugation; data not shown; with five-fold more LMNG and without LMNG; di-heptamer and heptamer formation; both purified

CDTb-pore, wild type (chymotrypsin-activated CDTb oligomer) (from UniProt O32739 214-876) (complex)
binding: binds
